Results from PubChem BioAssay AID504648 (National Center for Advancing Translational Sciences (NCATS), 2011).
Among all 390,000 compounds or so, about 610 (0.16%) were called active. The shares of active, inactive and inconclusive entries below differ from those in the screen. The call rests on the fitted dose curve; in most records, active means well fitted inhibition curve with a large enough effect; inconclusive means small, poorly fitted or top-dose-only effect, or effect the other way, or another doubt; inactive means no such curve, though single readings can be large or run the other way. A potency beside an inconclusive call is a rough fit, not a confirmed value.

Test: Nrf2 qHTS screen for inhibitors: counterscreen for cytotoxicity
Settings: A549 ARE-Fluc cells, CellTiter-Fluor viability, 18-24 h; activity change, negative = cytotoxicity: at 46 µM (top of the series)
How it was run: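 A549 ARE_Fluc cells in 5% FBS OPTI-MEM were exposed to compounds in concentration-response for 18-24 h at 37 deg C. Viability was read by CellTiter-Fluor fluorescence (Ex 405/Em 525) after 30 min, before the luciferase read.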
On the % scale 0 is the no-effect control and ±100 the full control effect; potency means the concentration at half of the fitted maximal effect.

**Q.** With `COc1cc(CNCCSc2nnnn2C)cc(Br)c1OCc1ccccc1F` as the compound, how does the “activity change, negative = cytotoxicity” value read?
**A.** inactive: 0.872%

**Q.** Which Potency does the source give for `Cc1nc2c(n1C1CCCCC1)C(=O)c1ccccc1C2=O` here?
**A.** inconclusive: 5.8 µM [activator, partial curve, poor fit]

**Q.** With `CCOC(=O)/C=c1/s/c(=C\c2c(OC)ccc3ccccc23)c(=O)n1CC(=O)NCC1CCCO1` (configuration not stated) as the compound, how does the Potency read?
**A.** inconclusive: 18.4 µM [falling, partial curve]

**Q.** Which Potency does the source give for `CC1=Nc2cc(C(=O)NCCc3ccc(Cl)cc3)ccc2Sc2ccc(C)cc21` here?
**A.** inconclusive: 20.6 µM [falling, partial curve, poor fit]

**Q.** Which “activity change, negative = cytotoxicity” value does the source give for `C=C(C)Cn1c(N2CC(C)CC(C)C2)nc2c1c(=O)[nH]c(=O)n2C` (configuration not stated) here?
**A.** inactive: -10.3%

**Q.** For `CC(C)(C)c1ccc(-c2n[nH]c(=S)n2-c2ccccc2)cc1`, which “activity change, negative = cytotoxicity” value is on record?
**A.** inactive: 2.72%

**Q.** For `COc1ccc(OC)c(NC(=O)c2cc(-c3cc(Cl)ccc3O)n[nH]2)c1`, which Potency is on record?
**A.** inconclusive: 25.9 µM [falling, single point]

**Q.** Which Potency does the source give for `CC(C)(C)OC(=O)NCCCC[C@H](NC(=O)c1nc[nH]c1C(=O)NC(c1ccccc1)c1ccccc1)C(=O)OC(C)(C)C` here?
**A.** inconclusive: 2.91 µM [falling, partial curve, poor fit]

**Q.** With `COc1cc2[nH]c3c(Cl)ncnc3c2cc1OC` as the compound, how does the “activity change, negative = cytotoxicity” value read?
**A.** inactive: -19.5%

**Q.** Which Potency does the source give for `COc1ccc(C(=O)Nn2c(SCC(=O)c3ccc(Cl)cc3)nc3ccccc3c2=O)cc1` here?
**A.** inconclusive: 20.6 µM [falling, partial curve, poor fit]

**Q.** Which Potency does the source give for `O=C(CSc1ccsc1[N+](=O)[O-])N1CCN(c2ccccn2)CC1` here?
**A.** inconclusive: 20.6 µM [falling, single point]

**Q.** With `COc1cccc(C(=O)NCCSc2c(-c3ccc(F)cc3)[nH]c3ccccc23)c1OC` as the compound, how does the Potency read?
**A.** inconclusive: 29.1 µM [falling, single point]

**Q.** For `Cc1cc(C)cc(N(CC(=O)NC2CCCCC2)C(=O)CCCC(=O)Nc2ccccn2)c1`, which Potency is on record?
**A.** inconclusive: 29.1 µM [falling, single point]

**Q.** With `CC1CN(S(=O)(=O)c2cccs2)CC(C)O1` (configuration not stated) as the compound, how does the Potency read?
**A.** inconclusive: 20.6 µM [activator, partial curve, poor fit]

**Q.** Which “activity change, negative = cytotoxicity” value does the source give for `CC(Oc1ccc(F)cc1)C(=O)NCC1(N(C)C)CCCCC1` (configuration not stated) here?
**A.** inactive: 1.86%

**Q.** For `CSCCC(NC(=O)c1ccccc1)C(=O)NCC(C)(C)N1CCOCC1` (configuration not stated), which Potency is on record?
**A.** inconclusive: 13 µM [activator, partial curve, poor fit]

**Q.** For `COc1ccc(/C=N/NC(=O)c2cccc([N+](=O)[O-])c2)c2ccccc12`, which Potency is on record?
**A.** inconclusive: 29.1 µM [falling, single point]

**Q.** With `Cc1ccc(S(=O)(=O)N2CCCc3cc(NS(=O)(=O)c4ccc(F)c(C)c4)ccc32)cc1` as the compound, how does the Potency read?
**A.** inconclusive: 23.1 µM [falling, partial curve, poor fit]

**Q.** For `Brc1cc(Br)c2ncnc(N3CCCCC3)c2c1`, which Potency is on record?
**A.** inconclusive: 20.6 µM [falling, partial curve]

**Q.** For `C/C(=N\NC(=O)C(c1ccccc1)c1ccccc1)c1ccccn1`, which Potency is on record?
**A.** inconclusive: 1.16 µM [falling, full curve]

**Q.** Which Potency does the source give for `O=C(c1ccco1)N1N=C(c2ccco2)CC1c1ccc(Cl)cc1Cl` (configuration not stated) here?
**A.** inconclusive: 18.4 µM [falling, partial curve, poor fit]

**Q.** For `CCOc1cccc(=O)c2c(C)n(-c3ccc(C(=O)O)cc3)c(C)c12`, which “activity change, negative = cytotoxicity” value is on record?
**A.** inactive: -23.1%

**Q.** With `O=C(CCCOc1ccccc1)NNC(=O)c1ccc(Cl)cc1` as the compound, how does the Potency read?
**A.** inconclusive: 9.2 µM [activator, partial curve, poor fit]

**Q.** With `COc1cccc2[nH]c3ccccc3c(=O)c12` as the compound, how does the Potency read?
**A.** inconclusive: 20.6 µM [activator, partial curve]

**Q.** For `O=c1oc2ccccc2c(NCc2ccccc2F)c1[N+](=O)[O-]`, which “activity change, negative = cytotoxicity” value is on record?
**A.** inactive: 2.76%

**Q.** Which Potency does the source give for `N#CC(c1ccc(Cl)cc1)(c1ncc(C(F)(F)F)cc1Cl)N1CCOCC1` (configuration not stated) here?
**A.** inconclusive: 29.1 µM [activator, partial curve, poor fit]

**Q.** Which “activity change, negative = cytotoxicity” value does the source give for `CS(=O)(=O)N(Cc1ccccc1)c1ccccc1C(=O)Nc1ccccc1C(=O)NCc1ccco1` here?
**A.** inactive: 7.2%

**Q.** With `COc1ccc(C2CC(=O)Oc3c(C(CCN4CCCC(C)C4)c4cc(OC)c(OC)c(OC)c4)c(OC)cc(OC)c32)cc1` (configuration not stated) as the compound, how does the “activity change, negative = cytotoxicity” value read?
**A.** inactive: -12%

**Q.** Which Potency does the source give for `COc1ccc(NC(=S)NCCNC(C)=O)cc1` here?
**A.** inconclusive: 29.1 µM [activator, single point]

**Q.** For `O=S(=O)(NC1c2cccc3cccc(c23)C1N1CCN(CCO)CC1)c1ccccc1` (configuration not stated), which Potency is on record?
**A.** inconclusive: 23.1 µM [falling, single point]

**Q.** Which Potency does the source give for `CCCOc1ccc(-c2nn(-c3ccccc3)cc2C2NC(=O)NC(C)=C2C(=O)OC(C)C)cc1` (configuration not stated) here?
**A.** inconclusive: 32.6 µM [falling, partial curve, poor fit]

**Q.** Which “activity change, negative = cytotoxicity” value does the source give for `O=C1Nc2c(c(=O)[nH]c(=O)n2-c2ccccc2)C1(NS(=O)(=O)c1ccc(Cl)cc1)C(F)(F)F` (configuration not stated) here?
**A.** inactive: 6.15%

**Q.** With `CCC(=O)N(CCC1(c2ccccc2OC)CCOC(C(C)C)C1)Cc1ccco1` (configuration not stated) as the compound, how does the “activity change, negative = cytotoxicity” value read?
**A.** inactive: -4.42%

**Q.** With `O=C(OCC(=O)N1CCCc2ccccc21)c1cc(Br)ccc1O` as the compound, how does the “activity change, negative = cytotoxicity” value read?
**A.** inactive: -8.41%

**Q.** For `Brc1ccc(Nc2ncnc3[nH]ncc23)cc1`, which Potency is on record?
**A.** inconclusive: 20.6 µM [activator, partial curve, poor fit]

**Q.** With `CCOc1cc(N2CCOCC2)c(OCC)cc1NC(=O)COc1cccc2cccnc12` as the compound, how does the Potency read?
**A.** inconclusive: 14.6 µM [falling, partial curve, poor fit]

**Q.** For `CC(=O)c1ccc(Oc2cc(C)nc(-n3nc(C)cc3C)n2)cc1`, which Potency is on record?
**A.** inconclusive: 29.1 µM [falling, partial curve, poor fit]

**Q.** Which Potency does the source give for `CCN(CC)c1ccc([N+](=O)[O-])cc1C(=O)O` here?
**A.** inconclusive: 25.9 µM [falling, partial curve, poor fit]

**Q.** Which Potency does the source give for `Cc1nc2ccccc2c2oc(C(=O)NCCN3CCN(C)CC3)cc12` here?
**A.** inconclusive: 32.6 µM [falling, single point]

**Q.** With `CC(Nc1cc(N2CCNCC2)ccc1[N+](=O)[O-])c1ccccc1` (configuration not stated) as the compound, how does the “activity change, negative = cytotoxicity” value read?
**A.** inactive: -3.06%

**Q.** Which Potency does the source give for `Cc1cc(C)nc(N/C(=N\S(=O)(=O)Cc2ccccc2)Nc2ccccc2Br)n1` here?
**A.** inconclusive: 23.1 µM [falling, single point]

**Q.** For `COC(=O)C1=CC(C(=O)c2cccs2)=NN(c2ccc(OC)cc2)C1C(=O)OC` (configuration not stated), which Potency is on record?
**A.** inconclusive: 18.4 µM [falling, partial curve]
